{"sequences": {"note": "Chains of the proteins cited; added tags and fusions are not shown. A line that says so, or that is headed by a name, gives the form on record, which may keep a tag or linker.", "VEGF165 (Homo sapiens), one chain, as listed by the source": "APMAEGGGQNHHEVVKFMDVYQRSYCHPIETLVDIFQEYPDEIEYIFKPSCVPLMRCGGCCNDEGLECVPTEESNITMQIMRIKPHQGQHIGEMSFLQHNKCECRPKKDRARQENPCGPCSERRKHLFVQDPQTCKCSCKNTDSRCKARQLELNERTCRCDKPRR"}, "source": "patent US20250197820", "key": {"[1]": {"biological_target": "T1, 2M polymerase (TGLLK T541G K592A) (Thermococcus gorgonarius) (UniProt P56689)", "T1 sequence": "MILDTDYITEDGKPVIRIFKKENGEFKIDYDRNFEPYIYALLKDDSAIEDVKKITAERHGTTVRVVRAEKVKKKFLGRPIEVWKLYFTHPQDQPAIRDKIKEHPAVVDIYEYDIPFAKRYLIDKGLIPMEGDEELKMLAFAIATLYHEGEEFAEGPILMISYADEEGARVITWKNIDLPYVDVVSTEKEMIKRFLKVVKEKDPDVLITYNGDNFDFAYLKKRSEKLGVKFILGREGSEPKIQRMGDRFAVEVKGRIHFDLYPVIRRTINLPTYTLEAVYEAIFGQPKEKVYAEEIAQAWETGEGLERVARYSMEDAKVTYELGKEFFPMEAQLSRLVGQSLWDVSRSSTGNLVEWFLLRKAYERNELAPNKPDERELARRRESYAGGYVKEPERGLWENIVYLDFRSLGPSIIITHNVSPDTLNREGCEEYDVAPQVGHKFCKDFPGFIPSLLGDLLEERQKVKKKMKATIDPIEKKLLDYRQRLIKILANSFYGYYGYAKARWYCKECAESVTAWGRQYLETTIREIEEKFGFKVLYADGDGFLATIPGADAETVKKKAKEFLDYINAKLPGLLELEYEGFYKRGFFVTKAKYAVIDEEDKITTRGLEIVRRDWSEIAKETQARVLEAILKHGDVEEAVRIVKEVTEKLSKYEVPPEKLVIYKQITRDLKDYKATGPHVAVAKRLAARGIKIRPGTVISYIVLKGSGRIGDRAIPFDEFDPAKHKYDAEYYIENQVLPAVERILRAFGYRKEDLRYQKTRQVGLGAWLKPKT", "assay": "activity assay", "conditions": "primer 2'-OMe, template DNA, purified recombinant protein"}, "[2]": {"biological_target": "KOD DGLNK polymerase N210D,Y409G,A485L,D614N,E664K (Thermococcus kodakarensis) (UniProt P77933)", "assay": "activity assay", "conditions": "primer 2'-OMe, template DNA; best with Mn2+ for 2'OMe-RNA; no efficient MOE-RNA synthesis; purified recombinant protein"}, "[3]": {"biological_target": "T2, 2MN polymerase (2M D614N) (Thermococcus gorgonarius) (UniProt P56689)", "T2 sequence": "T1 sequence with D614N", "assay": "activity assay", "conditions": "primer 2'-OMe, template DNA; small enhancement over 2M for 2'OMe-RNA, lesser for MOE-RNA; purified recombinant protein"}, "[4]": {"biological_target": "T3, 3M polymerase (TGLLK T541G K592A K664R) (Thermococcus gorgonarius) (UniProt P56689)", "T3 sequence": "T1 sequence with K664R", "assay": "activity assay", "conditions": "primer 2'-OMe, template DNA; virtually identical to 2M; purified recombinant protein"}, "[5]": {"tested_on": "VEGF165 (Homo sapiens)", "assay": "SPR", "conditions": "U as 5-methyl-U, purified recombinant protein, synthetic backbone, variant of ARC224 2'OMe"}}, "note": "Residue numbers refer to the chain shown, from its start. For some of these results: A negative result means that nothing was seen under these conditions. For some of these results: The comparison behind a weaker result is the experiment's own reference, which may not be listed here. For some of these results: Protein sequences can lack the tags named with them. For some of these results: The exact form of at least one protein or probe is not confirmed."}
{"sequence": "CCCCTTATTAGCGTTTGCCA / CCCTCTTTCTTCCTCTTCCCGATGCTGGACCAGATAAGCACTTAGCCACGTAGTGCTGTTCGGTAATCGATCTGGCAAACGCTAATAAGGGG [2'OMe-RNA primer FD / TempNpure]", "values": [{"measurement": "activity on this sequence", "setting": "[1]; full length +72 nt in <5 min (2'OMe-RNA), <20 min (MOE-RNA), Thermopol + MgSO4, 65 C", "value": "active"}, {"measurement": "activity on this sequence", "setting": "[2]", "value": "less active"}, {"measurement": "activity on this sequence", "setting": "[3]", "value": "active"}, {"measurement": "activity on this sequence", "setting": "[4]", "value": "active"}]}
{"sequence": "CCCCTTATTAGCGTTTGCCA / TCGATACTGGTACTAATGATTAACGATGTTGGCAAACGCTAATAAGGGGTCG [2'OMe-RNA primer FD / BFL770]", "values": [{"measurement": "activity on this sequence", "setting": "[1]; steady-state single incorporation, NTP KM about 5-fold better for 2'OMe-ATP and MOE-ATP than ATP, 6 mM Mg2+, 50 C, label: 5' 6-FAM primer", "value": "active"}]}
{"sequence": "CGATATGCAGTTTGAGAAGTCGCGCATTCG [ARC224 2'OMe-m5U]", "values": [{"measurement": "binding result", "setting": "[5]; all 2'-OMe, reduced affinity vs 2'OMe-U", "value": "binds more weakly"}]}
{"sequence": "CGATATGCAGTTTGAGAAGTCGCGCATTCG [ARC224 all-MOE]", "values": [{"measurement": "binding result", "setting": "[5]; all 2'-O-MOE, lost virtually all binding", "value": "no binding"}]}
